From paper PMC13498733 come the findings set out here.

Amino acid sequences for entries named in this document (tags omitted). A change or cut given only in a name is not applied to a line headed by its entry.
UniProt P11260: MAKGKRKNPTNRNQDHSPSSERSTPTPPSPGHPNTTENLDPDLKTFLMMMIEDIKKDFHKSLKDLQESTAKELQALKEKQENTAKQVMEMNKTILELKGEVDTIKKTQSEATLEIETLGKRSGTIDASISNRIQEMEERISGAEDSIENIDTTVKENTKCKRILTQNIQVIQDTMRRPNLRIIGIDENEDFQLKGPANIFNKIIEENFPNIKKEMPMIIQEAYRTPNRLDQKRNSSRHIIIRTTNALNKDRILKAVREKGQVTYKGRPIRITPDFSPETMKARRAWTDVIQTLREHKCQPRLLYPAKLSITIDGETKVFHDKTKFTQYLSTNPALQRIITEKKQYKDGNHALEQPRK

No constants are given. Whether binding was seen depends on the method and setting. Binding seen in cells or lysates may run through a third protein. These calls come from enrichment with a bait or labelling near it, and not all partners need be listed.

The test has as its target LINE-1 ORF1p (mouse) (mouse (endogenous in MN9D)) (UniProt P11260). The test is described as follows: affinity purification with mass spectrometry; IP of endogenous ORF1p with antibody-coupled Dynabeads from sonicated lysate of differentiated MN9D neurons (day 10), against rabbit IgG, n = 5 IPs; 10 mM Tris HCl pH 8, 150 mM NaCl, overnight 4°C; on-bead digest, LC-MS/MS (DIA), label-free quantification; ratio ≥2, P ≤0.05.

B1: ZNF281 (mouse) (protein, UniProt Q99LI5 1-893)
chain: MKIGSGFLSGGGGPSSSGGSGSGGSSGSASGGSGGGRRAEMEPTFPQSMVMFNHRLPPVTSFTRPAGTAAPPPQCVLSSSTSAAPAAEPPPPPAPDMTFKKEPAASAAAFPSQRTSWGFLQSLVSIKQEKPADPEEQPSHHHHHHHHYGGLFAGAEERSPGLGGGEGGSHGVIQDLSLLHQHAQQQPAQHHRDVLLSSGSRTDEHGNQEPKQDANVKKAKRPKPESQGIKAKRKPSASSKPLVGEGEGAVLSPSQKPHICDHCSAAFRSSYHLRRHVLIHTGERPFQCSQCSMGFIQKYLLQRHEKIHSREKPFGCDQCSMKFIQKYHMERHKRTHSGEKPYKCDTCQQYFSRTDRLLKHRRTCGEAIAKGAASAEPGSSNHNSMGNLAVLSQGNTSSSRRKSKSKSIAIENKEHKTGKTNESQMSNNINMQSYSVEMPTVSTSGSIIGTGIDELQKRVPKLIFKKGSRKNADKSYLNFVSPLPDVVGQKSLSGKPGGSLGIVSNNSVETISLLQSTSGKQGPISSNYDDAMQFSKKRRYLPTASSNSAFSINVGHMVSQQSVIQSAGVSVLDNEAPLSLIDSSALNAEIKSCHDKSGIPDEVLQSILDQYSGKSETQKEDPFNLTEPRVDLHTSGEHSELVQEENLSPGTQTPSNDKTSMLQEYSKYLQQAFEKSTNAGFTLGHGFQFVSLSSPLHNHTLFPEKQIYTTSPLECGFGQSVTSVLPSSLPKPPFGMLFGSQPGLYLSALDATHQQLTPSQELDDLIDSQKNLETSSAFQSSSQKLTSQKEQQKNLESSTSFQIPSQELASQIDPQKDIEPRTTYQIENFAQAFGSQFKSGSRVPMTFITNSNGEVDHRVRTSVSDFSGYTNMMSDVSEPCSTRVKTPTSQSYR
B1: the binding entry is on record as “binds”.
